From publication doi:10.1101/2024.10.18.619078 come the findings set out here.

No constants are given. Whether binding was seen depends on the method and setting. In cells and extracts the contact can be indirect. Here binding means that the protein was enriched with, or labelled near, the bait; the list need not be complete.

Assay [1] addresses HA-TurboID-LIFERING, wild-type (Arabidopsis thaliana). Nature of the assay: proximity labelling.
Assay [2] addresses HA-TurboID-LIFERING C392R (Arabidopsis thaliana). Nature of the assay: proximity labelling.

B1: acyl-CoA dehydrogenase IBR3 (At3g06810), endogenous (protein, UniProt Q8RWZ3 1-824)
chain: MGSSTGDLVTRIQSAHRFDHDALFRFAADNVSGFPTNPSQFKVSQFGHGQSNPTFLIEVGSGSSLKRYVLRKKPPGKLLQSAHAVDREFQVLRALGEHTQVPVPKVFCLCTDPAVIGTAFYIMEFMEGRIFIDPKLPNVAPERRNAIYRATAKALASLHSADVDAIGLEKYGRRGNYCKRQIDRWFKQYLASTSEGKPERNPKMFELVDWLRKNIPAEDSTGATSGLVHGDFRIDNLVFHPSEDRVIGIIDWELSTLGNQMCDVAYSCMHYIVNVQLDKEHVSEGFETTGLPEGMLSMPEFLLEYCSASGKPWPAANWKFYVAFSLFRAASIYTGVYSRWLMGNASAGERARNTGVQANELVESALGYIARENVLPEHPPSVQRDVSPSYESLVDGSGRFIPNRKVLELRQKLIKFMETHIYPMENEFSKLAQSDMRWTVHPQEEKLKEMAKREGLWNLFVPVDSAARARRELAATENKHNLSGKSFDQLFGEGLTNLEYGYLCEIMGRSVWAPQVFNCGAPDTGNMEVILRYGNKEQISEWLIPLLEGRIRSGFAMTEPQVASSDATNIECSIRRQGDSYVINGTKWWTSGAMDPRCRVLILMGKTDFNAPKHKQQSMILVDMRTPGISVKRPLTVFGFDDAPHGHAEISFENVVVPAKNILLGEGRGFEIAQGRLGPGRLHHCMRLIGAAERGMELMAQRALSRKTFGKFIAQHGSFVSDLAKLRVELEGTRLLVLEAADHLDKFGNKKARGILAMAKVAAPNMALKVLDTAIQVHGAAGVSSDTVLAHLWATARTLRIADGPDEVHLGTIGKLELQRASKL
modifications: biotinylated by TurboID in the cells (sites not given)
Take B1: the binding entry in assay [1] and in assay [2] was “binds” in each case.
